In patent publication US7319140:
No constants are given. Whether binding was seen depends on the method and setting. In cells and extracts the contact can be indirect. Some entries that bind do so weakly or less than the wild type.

Sequences of proteins named here, by UniProt entry; tags and fusion partners are left off. A change or cut given only in a name is not applied to a line headed by its entry. Residues count along the entry.
UniProt P43631, residues 22-304: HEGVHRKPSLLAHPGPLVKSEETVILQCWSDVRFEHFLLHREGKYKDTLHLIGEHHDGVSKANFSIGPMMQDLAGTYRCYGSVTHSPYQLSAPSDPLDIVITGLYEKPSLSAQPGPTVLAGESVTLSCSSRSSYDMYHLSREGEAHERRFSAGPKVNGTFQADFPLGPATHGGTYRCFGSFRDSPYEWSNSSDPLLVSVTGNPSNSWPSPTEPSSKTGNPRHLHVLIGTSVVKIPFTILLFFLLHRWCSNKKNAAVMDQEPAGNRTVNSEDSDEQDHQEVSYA
UniProt O43914: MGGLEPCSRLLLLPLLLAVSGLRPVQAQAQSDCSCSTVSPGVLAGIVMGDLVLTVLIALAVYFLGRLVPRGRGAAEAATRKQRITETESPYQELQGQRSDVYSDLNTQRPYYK

Legend:
[1] = molecular target: KIR2DS2 (human) (UniProt P43631); test: summary of the co-immunoprecipitations
[2] = molecular target: KIR2DS2 (human) (UniProt P43631); test: summary of the co-immunoprecipitation with KIR2DS2
[3] = molecular target: KIR2DS2 (human) (UniProt P43631); test: reciprocal co-immunoprecipitation from 125I-labelled 1% digitonin lysates of Ba/F3 transfectants

Measured: binding

DAP12-FLAG (human DAP12 with a FLAG epitope tag at the N terminus) (from UniProt O43914 28-113) (receptor)
binds: [1] | [2] | [3]
